# Measurements as given in ChEMBL document CHEMBL4303122, “Identification of potential treatments for COVID-19 through artificial intelligence-enabled phenomic analysis of human cells infected with SARS-CoV-2” (2020).
# Over roughly 1,600 compounds, “Hit score” has its median near 0.13; the highest 2% begin near 0.46. The list shows a part of the results.
# System: SARS-CoV-2
# Test: Antiviral activity against SARS-CoV-2 (USA-WA1/2020 strain) measured by imaging in HRCE cells at MOI 0.4 after 96 hrs (reported as hit score from 0-1 for on-disease vs off-disease activity: scores >0.6 considered hits)
# Type: functional, Homo sapiens
row,Compound,Hit score
1,Nc1cccc2c(=O)[nH][nH]c(=O)c12.[Na+],0.2367
2,COc1ccc(-c2cc(=O)c3c(O)cc(O[C@@H]4O[C@H](CO[C@@H]5O[C@@H](C)[C@H](O)[C@@H](O)[C@H]5O)[C@@H](O)[C@H](O)[C@H]4O)cc3o2)cc1O [DIOSMIN],0.0775
3,CN1CC2c3ccccc3Oc3ccc(Cl)cc3C2C1 (stereo unspecified) [ASENAPINE],0.0724
4,NC(=O)NC(=O)Cc1ccccc1 [PHENACEMIDE],0.1369
5,CC1CS(=O)(=O)CCN1/N=C/c1ccc([N+](=O)[O-])o1 (stereo unspecified) [NIFURTIMOX],0.1929
6,c1ccc2[nH]c(-c3cscn3)nc2c1 [THIABENDAZOLE],0.1704
7,O=C1OC2(c3ccc(O)cc3Oc3cc(O)ccc32)c2ccccc21 [FLUORESCEIN],0.1428
8,CCCCCCCCc1ccc(CCC(N)(CO)CO)cc1 [FINGOLIMOD],-0.1599
9,COc1cc(C(=O)NC2CCCNC2)cc(OC)c1OC (stereo unspecified) [TROXIPIDE],0.08235
10,O=C(O)[C@@H]1CCCN1 [PROLINE],0.14
11,CO[C@H]1C(=O)[C@]2(C)[C@@H](OC)C[C@H]3OC[C@@]3(OC(C)=O)[C@H]2[C@H](OC(=O)c2ccccc2)[C@]2(O)C[C@H](OC(=O)[C@H](O)[C@@H](NC(=O)OC(C)(C)C)c3ccccc3)C(C)=C1C2(C)C [CABAZITAXEL],-0.8282
12,O=C(O)CCn1c2c(c3ccccc31)C[C@H](NS(=O)(=O)c1ccc(F)cc1)CC2 [RAMATROBAN],0.05053
13,CC1(C)NC(=O)N(c2ccc([N+](=O)[O-])c(C(F)(F)F)c2)C1=O [NILUTAMIDE],0.005506
14,CCCCCCc1ccc(O)cc1O [HEXYLRESORCINOL],0.2337
15,O=C(/C=C\n1cnc(-c2cc(C(F)(F)F)cc(C(F)(F)F)c2)n1)NNc1cnccn1 [SELINEXOR],0.1809
16,CCCCc1nc(C)c(CC(=S)N(C)C)c(=O)n1Cc1ccc(-c2ccccc2-c2nnn[nH]2)cc1,0.1262
17,Cc1nc(NC(=O)N2CCC[C@H]2C(N)=O)sc1-c1ccnc(C(C)(C)C(F)(F)F)c1 [ALPELISIB],0.6194
18,CC(C)NCC(O)COc1cccc2ccccc12 (stereo unspecified) [PROPRANOLOL],0.3664
19,Nc1ncnc2c1ncn2CCOCP(=O)(O)O [ADEFOVIR],0.2505
20,CCC1=C(C)CN(C(=O)NCCc2ccc(S(=O)(=O)NC(=O)N[C@H]3CC[C@H](C)CC3)cc2)C1=O [GLIMEPIRIDE],0.2439
21,CCCCOc1cc(C(=O)NCCN(CC)CC)c2ccccc2n1 [DIBUCAINE],0.1716
22,CCS(=O)(=O)CCn1c([N+](=O)[O-])cnc1C [TINIDAZOLE],0.04306
23,O=C1CCc2cc(OCCCCc3nnnn3C3CCCCC3)ccc2N1 [CILOSTAZOL],-0.005558

# Reprinted at random: 2 compounds from above
row,Compound,Hit score
20,CCC1=C(C)CN(C(=O)NCCc2ccc(S(=O)(=O)NC(=O)N[C@H]3CC[C@H](C)CC3)cc2)C1=O [GLIMEPIRIDE],0.2439
11,CO[C@H]1C(=O)[C@]2(C)[C@@H](OC)C[C@H]3OC[C@@]3(OC(C)=O)[C@H]2[C@H](OC(=O)c2ccccc2)[C@]2(O)C[C@H](OC(=O)[C@H](O)[C@@H](NC(=O)OC(C)(C)C)c3ccccc3)C(C)=C1C2(C)C [CABAZITAXEL],-0.8282

# Further records:

row,Compound,Hit score
1,CNC(C)Cc1ccccc1OC (stereo unspecified) [METHOXYPHENAMINE],0.08963
2,C=C[C@]1(C)C[C@@H](OC(=O)CS[C@@H]2C[C@H]3CC[C@@H](C2)N3C)[C@]2(C)[C@H](C)CC[C@]3(CCC(=O)[C@H]32)[C@@H](C)[C@@H]1O [RETAPAMULIN],0.07786
3,C[C@@H](CN1CC(=O)NC(=O)C1)N1CC(=O)NC(=O)C1 [DEXRAZOXANE],0.2317
4,CC(=O)Nc1ccc(CC(=O)O)cc1 [ACTARIT],0.2693
5,CNCCC(Oc1ccc(C(F)(F)F)cc1)c1ccccc1 (stereo unspecified) [FLUOXETINE],0.07098
6,Cc1nc2n(c(=O)c1CCN1CCC(c3noc4cc(F)ccc34)CC1)CCCC2 [RISPERIDONE],0.02869
7,N=C(N)NCCC[C@H](N)C(=O)O [ARGININE],0.2007
8,OCc1cc(C(O)CNCCCCCCOCCCCc2ccccc2)ccc1O (stereo unspecified) [SALMETEROL],-0.09671
9,CC(C)(C)NC[C@H](O)c1ccc(O)c(CO)c1 [LEVOSALBUTAMOL],-0.2317
10,CC(=O)Nc1c(I)c(C(=O)O)c(I)c(N(C)C(C)=O)c1I [METRIZOIC ACID],0.02785
11,CCOc1ccccc1OCCN[C@H](C)Cc1ccc(OC)c(S(N)(=O)=O)c1 [TAMSULOSIN],0.1193
12,CCCS(=O)(=O)Nc1ccc(F)c(C(=O)c2c[nH]c3ncc(-c4ccc(Cl)cc4)cc23)c1F [VEMURAFENIB],0.2964
13,O=C(Nc1c(Cl)cncc1Cl)c1ccc(OC(F)F)c(OCC2CC2)c1 [ROFLUMILAST],0.1334
14,O=C(O)c1cc(-c2ccc(F)cc2F)ccc1O [DIFLUNISAL],0.07855
15,C=C1C(=O)O[C@@H]2[C@H]3C(C)=CC[C@@]34O[C@@]4(C)CC[C@@H]12 [ARGLABIN],0.02107
16,CO/N=C1\C[C@]2(C[C@@H]3C[C@@H](C/C=C(\C)C[C@@H](C)/C=C/C=C4\CO[C@@H]5[C@H](O)C(C)=C[C@@H](C(=O)O3)[C@]45O)O2)O[C@H](/C(C)=C/C(C)C)[C@H]1C [MOXIDECTIN],0.3085
17,CC(C)C(=O)Nc1ccc([N+](=O)[O-])c(C(F)(F)F)c1 [FLUTAMIDE],0.2322
18,Cn1cnc([N+](=O)[O-])c1Sc1ncnc2[nH]cnc12 [AZATHIOPRINE],0.1841
19,CC(=O)Oc1cc2c(s1)CCN(C(C(=O)C1CC1)c1ccccc1F)C2 (stereo unspecified),0.2148
20,OCCN1C[C@H](O)[C@@H](O)[C@H](O)[C@H]1CO [MIGLITOL],0.2289
21,COC(=O)C1=C(C)NC(C)=C(C(=O)OC(C)C)C1c1cccc2nonc12 (stereo unspecified) [ISRADIPINE],0.06277
22,C[C@@H]1CCO[C@H]2Cn3cc(C(=O)NCc4ccc(F)cc4F)c(=O)c(O)c3C(=O)N12 [DOLUTEGRAVIR],-0.02185
23,CC(=O)SCC(Cc1ccccc1)C(=O)NCC(=O)OCc1ccccc1 (stereo unspecified) [RACECADOTRIL],0.133
